Test results published in article PMC9052155.
Results are given in words; binding and its absence hold for the method and conditions named. Binding seen in cells or lysates may run through a third protein. Binding can be weak; no strength is given.

Amino acid sequences for entries named in this document (tags omitted).
UniProt Q9Y4K3: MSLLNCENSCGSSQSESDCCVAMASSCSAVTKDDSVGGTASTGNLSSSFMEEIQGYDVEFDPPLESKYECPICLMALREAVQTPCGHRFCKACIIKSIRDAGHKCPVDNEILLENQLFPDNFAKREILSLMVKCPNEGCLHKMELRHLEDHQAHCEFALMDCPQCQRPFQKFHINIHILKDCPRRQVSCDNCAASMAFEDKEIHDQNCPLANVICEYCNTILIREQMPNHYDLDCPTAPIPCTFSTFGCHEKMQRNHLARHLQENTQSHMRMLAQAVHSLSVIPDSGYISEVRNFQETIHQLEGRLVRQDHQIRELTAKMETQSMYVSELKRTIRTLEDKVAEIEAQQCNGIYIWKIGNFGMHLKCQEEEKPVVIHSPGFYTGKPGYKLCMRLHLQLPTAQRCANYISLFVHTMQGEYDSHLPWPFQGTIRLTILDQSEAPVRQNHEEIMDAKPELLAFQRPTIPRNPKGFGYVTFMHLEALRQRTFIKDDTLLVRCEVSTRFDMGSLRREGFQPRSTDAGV

Target: HA-tagged β-arr2ΔART (ART motif-deleted β-arrestin2) (rat) (UniProt P29067)
Experiment: co-IP; HA-tagged β-arr2 constructs precipitated with anti-HA agarose from HEK-293 lysates (50 mM HEPES pH 7.5, 2 mM EDTA, 250 mM NaCl, 10% glycerol, 0.5% NP-40; 4 °C overnight); partners detected by immunoblot; cells unstimulated or stimulated with isoproterenol (Figures 1C, 1F, 5C)

Substance | binding
ubiquitin-specific peptidase 20 (endogenous) (from UniProt Q9Y2K6 1-914) (enzyme) | binds
tumor necrosis factor receptor–associated factor 6 (endogenous) (from UniProt Q9Y4K3 1-522) (enzyme) | binds
